The text below walks through data of patent US20240301218A1 (THE UNIVERSITY OF BRITISH COLUMBIA, priority 2021, published 2024).

This series is described as follows: Fmoc solid-phase peptide synthesis. The following applies: whole synthesis, analytical RP-HPLC and LC-MS.

As to KRWRIRVRVIRK-bA-bA-C—NH2, the “final HPLC purity” value is given as >90%.
